{
  "source": "paper PMC8384837",
  "note": "The list shows a part of the results. At the low end of the ranking the order means little.",
  "data": [
    {"target": "T1, PUM1 PUF domain R3-THE R4-TFR C935T + R936H + Q939E + N971T + H972F + Q975R (UniProt Q14671)", "T1 sequence": "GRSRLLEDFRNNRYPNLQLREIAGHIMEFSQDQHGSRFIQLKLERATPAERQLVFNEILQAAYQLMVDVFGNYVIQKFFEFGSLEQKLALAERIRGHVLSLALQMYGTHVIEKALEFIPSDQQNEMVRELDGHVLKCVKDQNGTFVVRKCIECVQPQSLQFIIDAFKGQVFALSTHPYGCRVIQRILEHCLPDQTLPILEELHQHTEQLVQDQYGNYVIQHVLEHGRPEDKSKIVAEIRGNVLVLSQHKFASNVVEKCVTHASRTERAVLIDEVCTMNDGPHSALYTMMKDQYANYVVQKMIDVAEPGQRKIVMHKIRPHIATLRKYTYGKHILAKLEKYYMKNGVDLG", "conditions": "yeast three-hybrid, YBZ-1, SC-Leu-His + 0.5 mM 3-AT, 4 days", "values": [
      {"sequence": "GGCUAGAACUAGUGGAUCCCCCGGCGCCCGGCGGCUCGAGCCCGGGUAAGUGAAAAAGGUCUGCAUGCCGCCGGGCGCCAUGCCUGCAGGUCGACUCUAGAAAACAUG", "binding signal (log2 enrichment (interaction score))": -7.07},
      {"sequence": "GGCUAGAACUAGUGGAUCCCCCGGCGCCCGGCGGCUCGAGCCCGGGUAAGUGGCAGUGGUCUGCAUGCCGCCGGGCGCCAUGCCUGCAGGUCGACUCUAGAAAACAUG", "binding signal (log2 enrichment (interaction score))": "< -6.41"},
      {"sequence": "GGCUAGAACUAGUGGAUCCCCCGGCGCCCGGCGGCUCGAGCCCGGGUAAGUCUCACUUGUCUGCAUGCCGCCGGGCGCCAUGCCUGCAGGUCGACUCUAGAAAACAUG", "binding signal (log2 enrichment (interaction score))": -7.39},
      {"sequence": "GGCUAGAACUAGUGGAUCCCCCGGCGCCCGGCGGCUCGAGCCCGGGUAAGAGCACUAAGUCUGCAUGCCGCCGGGCGCCAUGCCUGCAGGUCGACUCUAGAAAACAUG", "binding signal (log2 enrichment (interaction score))": -6.29},
      {"sequence": "GGCUAGAACUAGUGGAUCCCCCGGCGCCCGGCGGCUCGAGCCCGGGUAAGUGUAUUUGGUCUGCAUGCCGCCGGGCGCCAUGCCUGCAGGUCGACUCUAGAAAACAUG", "binding signal (log2 enrichment (interaction score))": -6.07},
      {"sequence": "GGCUAGAACUAGUGGAUCCCCCGGCGCCCGGCGGCUCGAGCCCGGGUAAGAUCCAGUAGUCUGCAUGCCGCCGGGCGCCAUGCCUGCAGGUCGACUCUAGAAAACAUG", "binding signal (log2 enrichment (interaction score))": -6.61},
      {"sequence": "GGCUAGAACUAGUGGAUCCCCCGGCGCCCGGCGGCUCGAGCCCGGGUAAGCUUGGUUAGUCUGCAUGCCGCCGGGCGCCAUGCCUGCAGGUCGACUCUAGAAAACAUG", "binding signal (log2 enrichment (interaction score))": "< -7.7"},
      {"sequence": "GGCUAGAACUAGUGGAUCCCCCGGCGCCCGGCGGCUCGAGCCCGGGUAAGUUCGGGUAGUCUGCAUGCCGCCGGGCGCCAUGCCUGCAGGUCGACUCUAGAAAACAUG", "binding signal (log2 enrichment (interaction score))": "< -7.53"},
      {"sequence": "GGCUAGAACUAGUGGAUCCCCCGGCGCCCGGCGGCUCGAGCCCGGGUAAGAGUAUAAAGUCUGCAUGCCGCCGGGCGCCAUGCCUGCAGGUCGACUCUAGAAAACAUG", "binding signal (log2 enrichment (interaction score))": -6.84},
      {"sequence": "GGCUAGAACUAGUGGAUCCCCCGGCGCCCGGCGGCUCGAGCCCGGGUAAGAGGGAGAAGUCUGCAUGCCGCCGGGCGCCAUGCCUGCAGGUCGACUCUAGAAAACAUG", "binding signal (log2 enrichment (interaction score))": "< -6.73"},
      {"sequence": "GGCUAGAACUAGUGGAUCCCCCGGCGCCCGGCGGCUCGAGCCCGGGUAAGUGGAUAAAGUCUGCAUGCCGCCGGGCGCCAUGCCUGCAGGUCGACUCUAGAAAACAUG", "binding signal (log2 enrichment (interaction score))": -6.34},
      {"sequence": "GGCUAGAACUAGUGGAUCCCCCGGCGCCCGGCGGCUCGAGCCCGGGUAAGAUUAAAAAGUCUGCAUGCCGCCGGGCGCCAUGCCUGCAGGUCGACUCUAGAAAACAUG", "binding signal (log2 enrichment (interaction score))": -7.07},
      {"sequence": "GGCUAGAACUAGUGGAUCCCCCGGCGCCCGGCGGCUCGAGCCCGGGUAAGCGCAUGAUGUCUGCAUGCCGCCGGGCGCCAUGCCUGCAGGUCGACUCUAGAAAACAUG", "binding signal (log2 enrichment (interaction score))": -6.95},
      {"sequence": "GGCUAGAACUAGUGGAUCCCCCGGCGCCCGGCGGCUCGAGCCCGGGUAAGUUUGAGUAGUCUGCAUGCCGCCGGGCGCCAUGCCUGCAGGUCGACUCUAGAAAACAUG", "binding signal (log2 enrichment (interaction score))": -7.34},
      {"sequence": "GGCUAGAACUAGUGGAUCCCCCGGCGCCCGGCGGCUCGAGCCCGGGUAAGGAUAAAUCGUCUGCAUGCCGCCGGGCGCCAUGCCUGCAGGUCGACUCUAGAAAACAUG", "binding signal (log2 enrichment (interaction score))": "< -6.89"},
      {"sequence": "GGCUAGAACUAGUGGAUCCCCCGGCGCCCGGCGGCUCGAGCCCGGGUAAGGUUACAACGUCUGCAUGCCGCCGGGCGCCAUGCCUGCAGGUCGACUCUAGAAAACAUG", "binding signal (log2 enrichment (interaction score))": -7.21},
      {"sequence": "GGCUAGAACUAGUGGAUCCCCCGGCGCCCGGCGGCUCGAGCCCGGGUAAGUACACGACGUCUGCAUGCCGCCGGGCGCCAUGCCUGCAGGUCGACUCUAGAAAACAUG", "binding signal (log2 enrichment (interaction score))": -6.58},
      {"sequence": "GGCUAGAACUAGUGGAUCCCCCGGCGCCCGGCGGCUCGAGCCCGGGUAAGCUUAAGAAGUCUGCAUGCCGCCGGGCGCCAUGCCUGCAGGUCGACUCUAGAAAACAUG", "binding signal (log2 enrichment (interaction score))": -7.08},
      {"sequence": "GGCUAGAACUAGUGGAUCCCCCGGCGCCCGGCGGCUCGAGCCCGGGUAAGUUUACGGGGUCUGCAUGCCGCCGGGCGCCAUGCCUGCAGGUCGACUCUAGAAAACAUG", "binding signal (log2 enrichment (interaction score))": "< -6.81"},
      {"sequence": "GGCUAGAACUAGUGGAUCCCCCGGCGCCCGGCGGCUCGAGCCCGGGUAAGAAUAGUAAGUCUGCAUGCCGCCGGGCGCCAUGCCUGCAGGUCGACUCUAGAAAACAUG", "binding signal (log2 enrichment (interaction score))": "< -7.56"},
      {"sequence": "GGCUAGAACUAGUGGAUCCCCCGGCGCCCGGCGGCUCGAGCCCGGGUAAGGAUAAGUCGUCUGCAUGCCGCCGGGCGCCAUGCCUGCAGGUCGACUCUAGAAAACAUG", "binding signal (log2 enrichment (interaction score))": -5.98},
      {"sequence": "GGCUAGAACUAGUGGAUCCCCCGGCGCCCGGCGGCUCGAGCCCGGGUAAGUUUACCCAGUCUGCAUGCCGCCGGGCGCCAUGCCUGCAGGUCGACUCUAGAAAACAUG", "binding signal (log2 enrichment (interaction score))": -7.01}
    ]}
  ]
}
